This assay deals with T1, Drosophila Piwi, tagged version (Drosophila), Q9VKM1.
T1 chain: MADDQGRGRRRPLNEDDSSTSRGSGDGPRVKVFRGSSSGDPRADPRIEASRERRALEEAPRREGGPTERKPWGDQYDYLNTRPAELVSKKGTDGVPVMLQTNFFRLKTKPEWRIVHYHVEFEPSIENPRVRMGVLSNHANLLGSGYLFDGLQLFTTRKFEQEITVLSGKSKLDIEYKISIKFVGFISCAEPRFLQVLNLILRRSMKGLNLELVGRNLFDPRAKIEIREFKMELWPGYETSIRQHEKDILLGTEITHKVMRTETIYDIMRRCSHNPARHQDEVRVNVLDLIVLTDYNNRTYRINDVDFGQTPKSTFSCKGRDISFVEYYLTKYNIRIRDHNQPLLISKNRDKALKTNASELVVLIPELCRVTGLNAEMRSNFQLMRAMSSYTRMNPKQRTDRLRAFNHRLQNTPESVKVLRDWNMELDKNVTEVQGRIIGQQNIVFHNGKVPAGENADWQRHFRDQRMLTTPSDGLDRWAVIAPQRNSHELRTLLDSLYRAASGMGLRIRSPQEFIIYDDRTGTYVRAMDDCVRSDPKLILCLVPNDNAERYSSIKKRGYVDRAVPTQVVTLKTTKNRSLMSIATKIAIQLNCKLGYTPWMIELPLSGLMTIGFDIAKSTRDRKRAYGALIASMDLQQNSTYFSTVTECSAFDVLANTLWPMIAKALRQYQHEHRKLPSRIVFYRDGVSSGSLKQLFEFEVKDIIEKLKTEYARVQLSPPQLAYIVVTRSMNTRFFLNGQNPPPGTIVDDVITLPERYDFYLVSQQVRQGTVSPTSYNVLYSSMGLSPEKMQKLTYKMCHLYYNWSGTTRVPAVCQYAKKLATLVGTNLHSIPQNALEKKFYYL
Put plainly: tandem affinity co-purification; tagged Armi and Piwi co-expressed in insect cell cultures, tandem affinity purification, Coomassie gel; bands identified by mass spectrometry and Western blotting for the tags. Conditions: remark: other sources report otherwise. (In general: A western blot detects proteins with antibodies after separation by electrophoresis.)

Results are given in words; binding and its absence hold for the method and conditions named. Some binding calls cover weakened binding; strength is not graded here. Sequences can lack the tags named with a protein.

B1: Drosophila Armitage (Armi), tagged version, Q6J5K9 1-1188 (protein)
chain: MFTYVSKFFTNPDRNREDILESLDRENSFLDQKLMEEKMDQQLKANPNEINGVLSNKIAELTHGLSEMDVSKESSCTARKGVITSLDGDRGVIDKDVLFETKVAEDIILDLHVGCVVEYLTFTTGEAMRVVKVKSILEHSWEDTSQKEIEKAVDNLKNEKPTFFNTETRSVLGLISQRLASSIDVETEYGQLTVELDNIEMNFIPTNGDRVRLECNIQLDDGFVDKQGEILEVTKLFPTRIQEGEKCIVERVYVHMVVLGPETYILKTDLPTGTDLHLGDIVLADLIECQYSKFTRRAIKITPLEKNFGATKLTQQSSMGSSGSGKAVTVTGVNRFITAELWQKESVSLKLTNNLNRTLRLESITVCNDSESQLSVVSPLESKEISSGSEITVTFEIHTQFLGEAIEKYVLNFDLLKVRRVFTVIVCKTKEEVAEAEKRMIAAEALMAPGRNSQERSRFYANQVWCNKVDVIPGQQIVTKRRFVALRLGCFEVPKELRQICLTSERRQEMIKAIEQHYSFLTEPLSIKTYMHRFRLLLHLEEIECFVNFRNYDRDRAHFLRDGEFLTLQIENLAERRPSLVIGDTLRVINPWSDPDSQTTKSYEGIIHKVLFDRILLKFHSSFQEKYNGEDYRLEFYFSRYSFRKQHHAISKIVGVMGEDFLFPSKVTKRENPQLDVYMKDDDMYLYDSKLEWYNQSLNSIQKRAVFNILRGEAENIPYVLFGPPGSGKTMTLIETLLQLVRNLPGARILVGTPSNSSADLVTKRLIDSKALLQGDFIRLVSYNQVEKDLIPPEIMSYCATSDVGAVGSCEDKMMVTESGLKLRCQAKFIGTHRITISTCTTLGNFLQLGFPAGHFTHVLFDEAGQCTEPETMVPIVMLTKKRSQVVLSGDPRQLQSIVTSRIASKMGFSISFLERLLERSPYRKDLQRFPESSGYNPLVLTKLLYNYRALPSIMSIYSRLFYDDELIPVLSEKDSRESRLLSKLRCVFESEKDIPQAHGTFFYGIIGENRQNNDSPSWFNPQEVREVFLMTIALYRANVTADQIGIITPYQKQVKMLRSMFIGTDVVMPKIGSVEEFQGQERDIILISTVRSSEEILRMDARFSLGFVRCSKRLNVAVSRARAMMIIFGNPHLLAVDECWRQLILFCVKNNAYFGCDLPQMVINQKDEVPVCLETFVPSLNTTDDLN
As to B1, the binding result is on record as “binds”.

(Values after PMC5578672.)
